PubChem BioAssay AID1347131 (National Center for Advancing Translational Sciences (NCATS), 2019)
Hit rate of the full screen: of about 410,000 compounds, about 2,000 (0.49%) were called active. This list was built around the results that the source calls inconclusive (neither active nor inactive); the mix of calls is not that of the screen. Calls follow the shape of the full dose curve; tested in HEK293 reporter line. A potency beside an inconclusive call is a rough fit, not a confirmed value.

Assay: qHTS Assay for Foot and Mouth Disease Virus Antivirals: Primary Screen against the MLPCN compound library; also: nearly all actives have a fitted effect of over 55% in size
Conditions: FMDV antiviral cell-based qHTS; series mostly up to 57.9 µM
Potency is read from the fitted curve at half-maximal effect.

Structure (SMILES)	Potency
O=C1[C@H](Oc2ccccc2)[C@@H](c2ccccc2)N1c1ccncc1	inconclusive: 15.8 µM [inhibitor, partial curve, poor fit]
COc1ccc(NC(=S)N/N=C/c2cccn2Cc2ccc(F)cc2Cl)cc1	inconclusive: 12.6 µM [inhibitor, partial curve, poor fit]
CCOc1ccc(C(=O)Nc2ccc3nc(SCC(=O)N(C)c4ccccc4)sc3c2)cc1	inactive
CC(=O)N1c2ccc(S(=O)(=O)NCC3CCC(C(=O)Nc4ccc(F)cc4)CC3)cc2CC1C (stereo unspecified)	inconclusive: 35.5 µM [inhibitor, single point]
COc1cc(OC)cc(-c2cc3nc(C)c(CCC(=O)Nc4ccc(F)c(Cl)c4)c(C)n3n2)c1	inconclusive: 31.6 µM [inhibitor, partial curve, poor fit]
CCCn1c(NC(=O)c2cccc(S(=O)(=O)N3CCCC3)c2)nc2ccccc21	inconclusive: 31.6 µM [inhibitor, single point]
CC(C)Cn1c(N)c(C(=O)COC(=O)c2cc(C3CC3)nc3ccccc23)c(=O)n(C)c1=O	inconclusive: 31.6 µM [inhibitor, partial curve, poor fit]
Cc1ccc(OCC(=O)c2cc(C)n(Cc3cccs3)c2C)c([N+](=O)[O-])n1	inconclusive: 17.8 µM [inhibitor, partial curve, poor fit]
CCC(=NCc1ccc(F)cc1)c1c(O)n(C)c(=O)n(C)c1=O	inconclusive: 39.8 µM [inhibitor, partial curve, poor fit]
COc1ccc2c(c1)CCc1c(C(=O)Nc3c(C)nn(Cc4ccccc4)c3C)noc1-2	inconclusive: 28.2 µM [inhibitor, partial curve, poor fit]
CCCCCCCN(C(=O)CCl)c1cccc(C)c1	inconclusive: 28.2 µM [inhibitor, partial curve, poor fit]
COc1cccc(/C=N/NC(=O)c2nc(-c3ccccc3)cc(-c3ccccc3)n2)c1	inactive
Cc1ccc(Nc2c(C(C)C)c(C)c(C#N)c3nc4ccccc4n23)cc1	inactive
CCc1ccc(-c2nn(-c3ccccc3)cc2CSC(=N)N)cc1	inconclusive: 39.8 µM [inhibitor, single point]
C#C[C@]1(O)CC[C@H]2[C@@H]3CCC4=Cc5nc6nc7ccccc7n6cc5C[C@]4(C)[C@H]3CC[C@@]21C	inconclusive: 14.1 µM [inhibitor, partial curve, poor fit]
CCCC(=O)N1CCN(c2ccc(NC(=O)c3cc4ccccc4o3)cc2Cl)CC1	inconclusive: 4.47 µM [inhibitor, full curve, poor fit]
N#CC(C#N)=c1ccc2c(c1)N1C3=C(CCCC3)CC3CCCCC31N=2 (stereo unspecified)	inconclusive: 39.8 µM [inhibitor, partial curve, poor fit]
COc1ccc(Cn2c(=O)[nH]c3cc(C(=O)N4CCN(c5ccccn5)CC4)ccc3c2=O)cc1	inconclusive: 15.8 µM [inhibitor, single point]
O=C(NCCc1c[nH]c2ccccc12)/C(=C\c1cccnc1)NC(=O)c1ccccc1Br	inconclusive: 3.55 µM [inhibitor, partial curve, poor fit]

A draw from above in order of molecular weight, largest number first.
Structure (SMILES)	Potency
O=C(NCCc1c[nH]c2ccccc12)/C(=C\c1cccnc1)NC(=O)c1ccccc1Br	inconclusive: 3.55 µM [inhibitor, partial curve, poor fit]
Cc1ccc(OCC(=O)c2cc(C)n(Cc3cccs3)c2C)c([N+](=O)[O-])n1	inconclusive: 17.8 µM [inhibitor, partial curve, poor fit]
Cc1ccc(Nc2c(C(C)C)c(C)c(C#N)c3nc4ccccc4n23)cc1	inactive
O=C1[C@H](Oc2ccccc2)[C@@H](c2ccccc2)N1c1ccncc1	inconclusive: 15.8 µM [inhibitor, partial curve, poor fit]

(listing goes on)

Structure (SMILES)	Potency
CCc1ccccc1-n1nnc(-c2nsc(NC(=O)c3ccc(C)c(C)c3)n2)c1C	inconclusive: 11.2 µM [inhibitor, partial curve, poor fit]
CC(C)CC(=O)Nc1nc(-c2ccc(S(=O)(=O)N3CCOCC3)cc2)cs1	inconclusive: 22.4 µM [inhibitor, partial curve, poor fit]
O=C(O)CNC(=O)c1cccc(C(F)(F)F)c1	inconclusive: 5.01 µM [inhibitor, full curve]
COc1ccc(CCNc2ncnc3sccc23)cc1OC	inconclusive: 28.2 µM [inhibitor, partial curve, poor fit]
Cc1ccc(NC(=O)c2cnc3sc(N4CCOCC4)nn3c2=O)cc1N(C)C	inconclusive: 31.6 µM [inhibitor, partial curve, poor fit]
Cc1cc(C)cc(NC(=O)CSc2nc3nccnc3c(=O)n2CCc2c[nH]c3ccccc23)c1	inconclusive: 11.2 µM [inhibitor, partial curve]
Cn1cc(/C=C(\C#N)C(=O)Nc2ccccc2O)c2ccccc21	inconclusive: 39.8 µM [inhibitor, single point]
Cc1nc(/N=C(\N)NC(=O)NC2CCCCC2)nc2ccccc12	inconclusive: 31.6 µM [inhibitor, partial curve, poor fit]
Cc1ccc(C(=O)Cn2c(=N)n(N)c3ccccc32)cc1	inactive
COc1ccc(/C=C\c2onc(C)c2S(=O)(=O)N2CCC(C(=O)Nc3cccc(OC)c3)CC2)cc1	inconclusive: 14.1 µM [inhibitor, partial curve, poor fit]
O=C1c2cccc(OCC(=O)N3CCCc4ccccc43)c2CCN1Cc1cccnc1	inconclusive: 28.2 µM [inhibitor, partial curve, poor fit]
Cc1ccc(NC(=O)Cn2cc(S(=O)(=O)Cc3ccc(F)cc3)c3ccccc32)cc1Cl	inconclusive: 14.1 µM [inhibitor, partial curve, poor fit]
COc1ccc(-n2c(C)cc(C3=NNC(=NC4CC4)SC3)c2C)cc1	inconclusive: 17.8 µM [inhibitor, single point]
Cc1cccc(N2CCN(C(=O)C3CCN(c4ncnc5c4nc4n5CCCCC4)CC3)CC2C)c1 (stereo unspecified)	inconclusive: 31.6 µM [inhibitor, partial curve, poor fit]
COc1ccc(-c2nc(CN3CCN(c4ncnc5ccccc45)CC3)c(C)o2)c(OC)c1	inconclusive: 20 µM [inhibitor, partial curve, poor fit]
C=CCN1C(=O)/C(=C/c2cc(C)n(-c3cccnc3)c2C)C(=O)NC1=S	inconclusive: 35.5 µM [inhibitor, partial curve, poor fit]
Cc1ccc(NC(=O)c2noc3c2CCCCC3)cc1	inconclusive: 11.2 µM [inhibitor, single point]
COc1ccccc1Cn1c(=S)[nH]c2cc(C(=O)NCC3CCCO3)ccc2c1=O (stereo unspecified)	inconclusive: 25.1 µM [inhibitor, partial curve, poor fit]
CC1=C(C(=O)Nc2cccc(C(=O)NC3CCCCC3C)c2)SCCO1 (stereo unspecified)	inconclusive: 22.4 µM [inhibitor, single point]

Structure (SMILES)	Potency
Cc1ccc(S(=O)(=O)N2C[C@@H]3[C@H]4CC[C@H](C4)[C@@H]3[C@@H](C)[C@H]2c2ccco2)cc1	inconclusive: 1.26 µM [inhibitor, full curve]
C[n+]1cc2c3c(ccc2c2ccc4cc5c(cc4c21)OCO5)OCO3	inconclusive: 25.1 µM [inhibitor, partial curve, poor fit]
C/C(=N\N1CCN(C2c3ccccc3-c3ccccc32)CC1)c1ccncc1	inconclusive: 12.6 µM [inhibitor, partial curve, poor fit]
O=C(CSc1cn(CCNC(=O)c2cccc(C(F)(F)F)c2)c2ccccc12)Nc1ccc2c(c1)OCCO2	inconclusive: 25.1 µM [inhibitor, partial curve, poor fit]
COc1ccc(C(=O)Nc2ccc3nc(SCC(=O)N(C)c4ccccc4)sc3c2)cc1	inconclusive: 35.5 µM [inhibitor, single point]
CN1C(=O)/C(=C/c2ccccc2Cl)Sc2ccc(C(=O)NCc3cccnc3)cc21	inconclusive: 39.8 µM [inhibitor, partial curve, poor fit]
Cc1nnc(SCC(=O)N(C2CCCCC2)C2CCS(=O)(=O)C2)n1C (stereo unspecified)	inconclusive: 3.16 µM [inhibitor, full curve]
COc1ccccc1CN1C(=O)c2cccc3cccc(c23)C1=O	inactive
O=C1OC[C@@H]2CCCN2C(=O)[C@H](CC(=O)N(CCO)Cc2ccccc2)C/C=C\CC[C@@H]1Cc1ccc(F)cc1	inconclusive: 15.8 µM [inhibitor, partial curve]
CC(C)CCN1C(=O)c2ccc(C(=O)Nc3cccc(S(N)(=O)=O)c3)cc2C1=O	inconclusive: 28.2 µM [inhibitor, partial curve, poor fit]
Clc1ccccc1/C=C/c1nc(-c2ccccn2)no1	inconclusive: 3.98 µM [inhibitor, partial curve, poor fit]
CCc1ccc2[nH]c(=O)c(CN(Cc3ccccc3OC)C(=O)Nc3ccccc3OC)cc2c1	inconclusive: 10 µM [inhibitor, partial curve, poor fit]
FC(F)C(F)(F)Oc1cccc(Nc2nccn3c(-c4ccc5ccccc5c4)cnc23)c1	inactive
CCCCCCn1c(N2CCCC2)nc2c1c(=O)n(C)c(=O)n2C	inconclusive: 28.2 µM [inhibitor, partial curve, poor fit]
COc1cc(OC)c(N(C)S(=O)(=O)c2cccc(C(=O)OCC(=O)c3c[nH]c4ccccc34)c2)cc1Cl	inconclusive: 8.91 µM [inhibitor, full curve, poor fit]
COc1ccc([N+](=O)[O-])cc1NC(=O)C(C)OC(=O)C1CCCC1 (stereo unspecified)	inactive
OC[C@H]1O[C@@H](Oc2ccc3cc(Br)ccc3c2)[C@H](O)[C@@H](O)[C@H]1O	inconclusive: 7.08 µM [inhibitor, full curve]
Cc1ccc(CNC(=O)C2CCCN2S(=O)(=O)c2ccc3c(c2)C(C)(C)C(=O)N3C)cc1 (stereo unspecified)	inconclusive: 4.47 µM [inhibitor, full curve]
